The values that follow come from the supplement of paper PMC12873370.

This is one part of the list. Single values are uncertain, as repeats are few or missing.

This experiment deals with PREPP (mouse prostate epithelium Trp53/Pten KO). Nature of the experiment: cell viability relative to untreated (fraction); higher = less growth inhibition. The note with it: 5 µM; 3 days.
Turning to `COc1cc(C2Oc3c(O)cc([C@H]4Oc5cc(O)cc(O)c5C(=O)[C@@H]4O)cc3C2CO)ccc1O` (stereo partly drawn), the cell viability was found to be 0.879.

`O=C(O)c1c[nH]c(=O)[nH]c1=O` returned a cell viability of 1.09.

Take `C[C@H]1[C@H](NC(=O)/C(=N\OC(C)(C)C(=O)O)c2csc(N)n2)C(=O)N1S(=O)(=O)O`: the cell viability amounted to 0.855.

Turning to `C[C@H](CCC(=O)O)[C@H]1CC[C@H]2[C@@H]3CC[C@@H]4C[C@H](O)CC[C@]4(C)[C@H]3CC[C@]12C`, the cell viability is 0.741.

On to `CN[C@@H]1[C@@H](O)[C@@H](O[C@@H]2[C@@H](O)[C@H](O[C@H]3O[C@H](CN)[C@@H](O)[C@H](O)[C@H]3O)[C@@H](N)C[C@H]2NC(=O)[C@@H](O)CN)OC[C@]1(C)O`, for which the cell viability worked out at 1.16.

Molecule `CCc1c2c(nc3ccc(O)cc13)-c1cc3c(c(=O)n1C2)COC(=O)[C@]3(O)CC` registered a cell viability of 0.717.

On to `C[C@H]1[C@H](C)CC[C@]2(C(=O)O)CC[C@]3(C)C(=CC[C@@H]4[C@@]5(C)C[C@@H](O)[C@H](O)[C@@](C)(CO)[C@@H]5[C@H](O)C[C@]43C)[C@H]12`, for which the cell viability was found to be 0.947.

The molecule `NCCOP(=O)(O)O` returned a cell viability of 1.05.

In turn, `COc1ccc(-c2coc3cc(O)ccc3c2=O)cc1` gave a cell viability of 0.94.

As to `CC(=O)c1ccccc1O`, the cell viability came out at 0.956.

For the molecule `COc1ccc(-c2coc3cc(O[C@@H]4O[C@H](CO)[C@@H](O)[C@H](O)[C@H]4O)ccc3c2=O)cc1`, the cell viability turned out to be 1.05.

Molecule `OCCc1ccc(O)cc1` had a cell viability of 0.821.

For the molecule `COc1cc2ccc(=O)oc2c(O[C@@H]2O[C@H](CO)[C@@H](O)[C@H](O)[C@H]2O)c1O`, the cell viability was 0.969.

With `N[C@@H](CS)C(=O)O`, the cell viability is 1.02.

Turning to `COc1ccc(/C=C/C(=O)/C=C(O)/C=C/c2ccc(OC)c(OC)c2)cc1OC`, the cell viability amounted to 0.535.

In the case of `CC1=CC(=O)c2ccccc2C1=O`, the cell viability was determined as 0.947.

The molecule `COc1cc(OC)cc(OC)c1` showed a cell viability of 0.961.

For the molecule `CCN1CCN(C(=O)N[C@@H](C(=O)N[C@@H]2C(=O)N3C(C(=O)O)=C(CSc4nnnn4C)CS[C@H]23)c2ccc(O)cc2)C(=O)C1=O`, the cell viability was found to be 0.883.

Consider `CO[C@@]1(NC(=O)Cc2cccs2)C(=O)N2C(C(=O)O)=C(COC(N)=O)CS[C@@H]21`, for which the cell viability is 0.937.

`O=c1ccn([C@@H]2O[C@H](CO)[C@@H](O)[C@H]2O)c(=O)[nH]1` registered a cell viability of 0.99.

In the case of `C[C@H](Cc1cc2c(c(C(N)=O)c1)N(CCCO)CC2)NCCOc1ccccc1OCC(F)(F)F`, the cell viability was found to be 0.97.

`C[C@H]1[C@H](C)CC[C@]2(C(=O)O[C@@H]3O[C@H](CO[C@@H]4O[C@H](CO)[C@@H](O[C@@H]5O[C@@H](C)[C@H](O)[C@@H](O)[C@H]5O)[C@H](O)[C@H]4O)[C@@H](O)[C@H](O)[C@H]3O)CC[C@]3(C)C(=CC[C@@H]4[C@@]5(C)C[C@@H](O)[C@H](O)[C@@](C)(CO)[C@@H]5[C@H](O)C[C@]43C)[C@H]12` showed a cell viability of 0.948.

`N[C@@H](CCCCNC(=O)CCCC[C@@H]1SC[C@@H]2NC(=O)N[C@@H]21)C(=O)O` had a cell viability of 0.865.
